# Where “and” joins values, the source holds several entries; their conditions need not be identical. Identical values can stand only once. The whole screen tested about 410,000 compounds, of which about 18,000 (4.4%) were called active. This list was built around the results that the source calls inconclusive (neither active nor inactive); the mix of calls is not that of the screen. Cut-off read from the data, not from the text of the source: active = activity change below about -60%; inconclusive = no clear call, values can overlap the other calls; inactive = above about -39%. A structure can be active in one record and inactive in another.
# Experiment: qHTS Assay for inhibitors of the human cytomegalovirus (HCMV)
# Conditions: HFF cells, HCMV-luciferase reporter, 72 h; at 57.5 µM; stronger effect = lower value
# Procedure, shortened: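 Luciferase read-out from HCMV-luciferase-infected HFFs (MOI 1 PFU/cell) 72 h post infection at 37C; compounds added after 16 h cell attachment; activity normalized between buffer-only basal and Salinomycin (10uM) inhibitor controls.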
# % is set by controls: 0 for no effect and ±100 for the full control effect.
row,SMILES,"activity change, negative = inhibition"
1,COc1ccc(NC(=O)c2ccc([N+](=O)[O-])o2)cc1,active: -101%
2,COc1ccc(NC(=O)CN(C)C(=O)COc2ccccc2Cc2ccccc2)cc1,inconclusive: 0%
3,COCCNC(=O)/C(C#N)=C/C=C/c1ccccc1[N+](=O)[O-],active: -95.6%
4,CC1(C)CCc2cc(-c3ccn(S(=O)(=O)c4ccccc4Cl)n3)ccc2O1,inconclusive: -55.8%
5,COc1ccc(OC)c(Cc2nnc(CCC(=O)NCc3nc4ccccc4s3)o2)c1,inactive: 21.8%
6,COc1ccc(C2c3cc(OC)c(OC)cc3CC(=O)N2c2ccc(C)c(F)c2)cc1 (stereo not drawn),inactive: 13.2%
7,O=C(NCCCNC(=O)c1cc(Cl)ccc1Cl)c1cnccn1,inconclusive: -50.2%
8,COc1ccc(Br)cc1-c1nc(CCl)cs1,inconclusive: -48.8%
9,C=CCc1ccccc1OCC(O)CN1CCN(c2ccccc2OC)CC1 (stereo not drawn),inactive: -15.4% and active: -64.1%
10,O=[N+]([O-])c1cc(-c2nc(-c3ccccc3)no2)ccc1NC1CCCCC1,inactive: 1.65%
11,O=C(CSc1nnc(Nc2ccccc2F)s1)c1cc2ccccc2o1,inactive: 63.3%
12,O=C(CCCc1nc(-c2ccc(Cl)cc2)no1)Nc1cccnc1,active: -71.8%
13,O=C(Cc1csc2nc(-c3ccc(F)cc3)cn12)NCc1ccccc1,inconclusive: -42.6%
14,NC(=O)CC(NC(=O)Cc1cccc2ccccc12)c1ccc(NCCOc2ccccc2)c([N+](=O)[O-])c1 (stereo not drawn),active: -68.5%
15,CC1(Cc2ccccc2Cl)C(=O)Nc2c(Cl)ccc(Cl)c21 (stereo not drawn),inconclusive: -56.2%
16,CCN(c1ccccc1)S(=O)(=O)c1c(-c2ccc(C)cc2)csc1C(=O)OC,active: -66.9%
17,CCOC(=O)c1sc(-c2cccs2)nc1C,inactive: 17%
18,COC(=O)C1=C(c2cccc(OCc3ccccc3)c2)C[C@@H]2CC[C@H]1N2C(=O)NCc1ccc(C(F)(F)F)cc1,inconclusive: -52.3%
19,COC(=O)N1CCCCC1c1cc(C(=O)Nc2ccc(OC)cc2C)no1 (stereo not drawn),inactive: 1.43%
20,Cc1ccc2c(c1)nnn2C1CCN(C(=O)C2CCCCC2)CC1,inconclusive: -44.4%
21,C=CCOc1c(CNc2cccc(C(=O)O)c2)cccc1OCC,active: -81%
22,CCc1cccc(C)c1NC(=O)Cn1nc(C)c2nn(-c3ccc(Cl)cc3)c(C)c2c1=O,active: -61.6%

row,SMILES,"activity change, negative = inhibition"
1,CCN(CC(=O)NC(C)(C)C)C(=O)CCl,inconclusive: -43.5%
2,O=c1cc(Cc2nnc(SCc3ccccc3)n2-c2ccc(Cl)cc2)[nH]c(=O)[nH]1,inconclusive: -53%
3,OCCN1CCN(c2nccn3ccnc23)CC1,inactive: 5.94%
4,COc1ccc(-c2nc(C#N)c(N3CCCCCC3)o2)cc1OC,inconclusive: -45.3%
5,CCCCn1c(N)c(N(CCOC)C(=O)CSc2nnc(-c3ccc(F)cc3)n2N)c(=O)[nH]c1=O,inconclusive: -41.9%
6,Cc1cc(=O)[nH]c2c(N=Nc3ccc(O)cc3)c(N)nn12,inconclusive: -51.6%
7,O=C(/C=C/c1ccc(Cl)cc1Cl)c1cccnc1,inconclusive: -51.9%
8,COc1ccccc1NCCC(=O)O,inactive: 0%
9,COc1ccc(-n2c(-c3ccc(Br)cc3)c[n+]3c2CCc2ccccc2-3)cc1,active: -100%
10,COc1ccc(CC(=O)NCc2nc3cccnc3n2Cc2ccccc2)cc1,inconclusive: -42.5%
11,Cc1ccc2oc(=O)c3cnn(CC(=O)Nc4ccccc4N4CCN(C)CC4)c3c2c1,inconclusive: -47.9%
12,CN(C)c1ccc(Nc2ncnc3sc4c(c23)CCCC4)cc1,active: -89.5%
13,O=C(Nc1ccc(F)cc1F)c1cccn(Cc2ccccc2)c1=O,inconclusive: -50.3%
14,Cc1cc(NC(=O)CN2CCC(C)CC2)nc2c1c(=O)oc1ccccc12,inactive: 7.38%
15,COc1cc(C(=O)Nc2c(C)cc(C)cc2C)c(Br)c(OC)c1OC,inconclusive: -48.1%
16,CCCCNC(=O)/C(C#N)=C/c1ccc2c(c1)OCCO2,inconclusive: -55.6%
17,CCOC(=O)c1c(C)[nH]c(C)c1S(=O)(=O)N1CCC(C(=O)NCc2ccccc2Cl)CC1,inactive: -3.65%
18,CC(C)(C)c1ccc(N/N=C(\C#N)S(=O)(=O)C(C)(C)C)cc1,inconclusive: -56.6%
19,COc1cc(C)c(CN2CCN(C(=O)CCC(=O)c3ccc(C)s3)CC2)cc1OC,inconclusive: -51.4%
20,O=C1N/C(=N\N=C\c2ccco2)SC1Cc1ccccc1[N+](=O)[O-] (stereo not drawn),inconclusive: -40.1%
21,CC(=O)Nc1ccc(N(C(=O)Cn2nnc3ccccc32)C(C(=O)NCc2ccccc2)c2ccc(C)cc2)cc1 (stereo not drawn),inactive: -17.4%
